In article PMC8762706 (ACS Medicinal Chemistry Letters, 2021):

Assay: general procedure: Fmoc solid-phase peptide synthesis; (2-Cl)Trt chloride resin (MeLeu-(2-Cl)Trt resin 3; H-MeIle-(2-Cl)Trt resin for 11 and 12); HATU/DIEA; DIC/HOAt; DIC/HOBt; DIC/DMAP for the ester bond
Details: whole synthesis; for isolated yield: from resin

Row | Substance | isolated yield (scale 0.100 mmol) | isolated mass (scale 0.100 mmol) | other results
1 | [MeAla3, D-MeOrn(Me)5, MeAla6]-Coibamide A | 7% | 9.5 mg | 
2 | [MeAla3, MeLys(Me)5, MeAla6, Phe10]-Coibamide A | 3% | 4.2 mg | 
3 | [MeAla3, MeLys5, MeAla6]-Coibamide A | 20% | 25.6 mg | 
4 | [MeAla3, MeLys(Me)5, MeAla6, Phe(4-CN)10]-Coibamide A | 18% | 23.9 mg | 
5 | [Bph10]-Coibamide A |  |  | isolated yield (scale 0.300 mmol): 6.1%; isolated mass (scale 0.300 mmol): 26.5 mg
6 | [MeAla3, MeLys(Me)5, MeAla6, Phe(4-Ot-Bu)10]-Coibamide A | 24% | 31.7 mg | 
7 | [MeAla3, MeLys(Me)5, MeAla6, Phe(4-OCF3)10]-Coibamide A | 16% | 21.8 mg | 
8 | [MeAla3, Leu4, MeLys(Me)5, MeAla6]-Coibamide A | 4% | 5.4 mg | 
9 | [MeAla3, MeLys(Me)5, MeAla6, 2-Nal10]-Coibamide A | 4% | 5.5 mg | 
10 | [MeAla3, MeOrn(Me)5, MeAla6]-Coibamide A | 22% | 27.6 mg | 
11 | [MeAla3, MeLys(Me)5, MeAla6, D-MeLeu9]-Coibamide A | 10% | 13.4 mg | 
12 | [MeAla3, MeLys(Me)5, MeAla6, Phe(4-CF3)10]-Coibamide A | 25% | 32.8 mg | 
13 | [MeAla3, MeLys(Me)5, MeAla6, Phe(4-NO2)10]-Coibamide A | 13% | 17.4 mg | 
14 | [MeAla3, MeLys(Me)5, MeAla6, D-Tyr(Me)10]-Coibamide A | 3% | 4.4 mg | 
15 | [MeAla3, MeLys(Me)5, MeAla6, 2-Pal10]-Coibamide A | 5% | 7.1 mg | 
16 | [MeAla3, MeLys(Me)5, Ala6]-Coibamide A | 7% | 8.8 mg | 
17 | [MeAla3, MeAla6, Bph10]-Coibamide A |  |  | isolated yield (scale 0.300 mmol): 7.3%; isolated mass (scale 0.300 mmol): 30.3 mg
18 | [MeAla3, MeLys(Me)5, MeAla6, 3-Pal10]-Coibamide A | 23% | 31.3 mg | 
19 | [MeAla3, Lys(Me)5, MeAla6]-Coibamide A | 7% | 8.5 mg | 
20 | [MeAla3, D-MeLys5, MeAla6]-Coibamide A | 13% | 17.2 mg | 
21 | [MeAla3, MeLys(Me)5, MeAla6, D-Ala8]-Coibamide A | 3% | 3.2 mg | 
22 | [MeAla^3, MeLys(Me)^5, MeAla^6]-CbA |  |  | isolated mass: 5.9 mg; isolated yield (scale of the general procedure 0.100 mmol (0.300 mmol for 11 and 12)): 4.4%
23 | [MeAla3, D-MeLys(Me)5, MeAla6]-Coibamide A | 8% | 10.3 mg | 
24 | [Ala3, MeLys(Me)5, MeAla6]-Coibamide A | 5% | 6.9 mg | 
